Results on 1 substance are retold here after article PMC6016461.

This assay deals with T1, Strep-tagged NifW (A. vinelandii) (UniProt P14888).
T1 sequence: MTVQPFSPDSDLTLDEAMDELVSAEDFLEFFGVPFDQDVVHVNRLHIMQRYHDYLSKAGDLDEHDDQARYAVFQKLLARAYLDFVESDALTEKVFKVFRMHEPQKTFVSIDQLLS
The experiment in a line: pull-down; purified Strep-tagged NafY, NifY or NifW immobilised on Strep-Tactin XT resin; A. vinelandii cell-free extract (MoFe protein without Strep-tag) passed over; anoxic buffer C (50 mM Tris-HCl pH 7.9, 2 mM Na2S2O4, 350 mM NaCl), 10 column volumes wash; eluted with 50 mM biotin; SDS-PAGE; some samples further run on Superose 12 to remove excess bait; only the target purified.

These are yes or no findings as the source states them, for the method shown. Binding seen in cells or lysates may run through a third protein. Tags and fused reporters may be left off the sequences shown.

For NafH (A. vinelandii), the binding entry was “no binding”.
